Results: the supplement of paper PMC12889115
Some of the results follow. These are raw signals, not scaled to a control.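 In the initial screen, polymyxin B was used at a concentration that permeabilizes Salmonella's outer membrane but not its inner membrane. Maximum growth was set by DMSO wells with or without polymyxin B. Since plates varied, data were ranked per plate, and compounds giving the lowest OD600 advanced as hits.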

Tested on: Salmonella enterica serovar Typhimurium SL1344
Experiment: bacterial growth OD600 after 18 h with compound and polymyxin B; higher = more bacterial growth (less inhibition)
Conditions: 50 µM, Mueller-Hinton broth

For `CCn1cc(C(=O)N2CCCC(CNC(=O)c3cccc4ccccc34)C2)cn1` (stereo unspecified), the “bacterial growth OD600” value (polymyxin B 1 µg/mL) was 0.88.

For `COc1ccccc1C(=O)Nc1ccnn1C1CCN(C(=O)C(C)(C)C)CC1`, the “bacterial growth OD600” value (polymyxin B 1 µg/mL) was 0.85.

For `CN(CCc1cnn(C)c1)c1nncc(-c2ccccc2F)n1`, the “bacterial growth OD600” value (polymyxin B 1 µg/mL) was 0.911.

In the case of `O=C(NCCCc1ccccc1)c1coc(CN2CCN(c3ncccn3)CC2)n1`, the “bacterial growth OD600” value (polymyxin B 1 µg/mL) is reported as 0.555.

In the case of `COC(=O)[C@@H]1CCCN1C(=O)Cc1ccc(N2CCC(NCCSc3nccn3C)CC2)cc1`, the “bacterial growth OD600” value (polymyxin B 0.75 µg/mL) is reported as 0.908.

With `COc1ccccc1C1CN(CC(=O)NCc2cccc(F)c2F)Cc2ccccc2O1` (stereo unspecified) the “bacterial growth OD600” value (polymyxin B 0.75 µg/mL) was 0.6.

`CCCCn1c(CN(C)Cc2cccc(OC)c2)cnc1S(=O)(=O)CC1CCC1` was tested, and the “bacterial growth OD600” value (polymyxin B 1 µg/mL) was 0.017.

For `O=C(CCC1(Cc2ccco2)CCC(=O)N1)NCc1ccc(F)cc1` (stereo unspecified), the “bacterial growth OD600” value (polymyxin B 0.75 µg/mL) was 0.86.

For `OCC1(CCc2ccccc2)CCCN(Cc2ccc3c(c2)CCO3)C1` (stereo unspecified), the “bacterial growth OD600” value (polymyxin B 1 µg/mL) was 0.822.

For `C=C(C)CN(CC)C(=O)CCc1nnc(CCc2ccc(OC)cc2)o1`, the “bacterial growth OD600” value (polymyxin B 1 µg/mL) was 0.861.

With `COc1ccccc1OCc1cc(C(=O)N2CCN(c3ccccc3)C(=O)C2)n[nH]1` the “bacterial growth OD600” value (polymyxin B 1 µg/mL) was 1.19.

With `CCOC(=O)N1CCN(Cc2ccc3c(c2)CN(C(=O)CC2=CCCCC2)CCO3)CC1` the “bacterial growth OD600” value (polymyxin B 0.75 µg/mL) was 1.02.

In the case of `Cc1ccoc1C(=O)N1CCC(C2CCN(Cc3cccnc3)CC2)C1` (stereo unspecified), the “bacterial growth OD600” value (polymyxin B 0.75 µg/mL) is reported as 0.882.

With `CCOC(=O)C1(Cc2ccc(F)cc2)CCCN(C(=O)c2ccc(OC)cc2)C1` (stereo unspecified) the “bacterial growth OD600” value (polymyxin B 1 µg/mL) was 0.999.

`COCCC(=O)N1CCCC1C(=O)Nc1cccc(-c2cccc(C)c2)c1` (stereo unspecified) was tested, and the “bacterial growth OD600” value (polymyxin B 1 µg/mL) was 0.888.

In the case of `COc1ccc(CNC(=O)CCC2CCCN(Cc3cccc(C)c3)C2)c(OC)c1` (stereo unspecified), the “bacterial growth OD600” value (polymyxin B 0.75 µg/mL) is reported as 0.807.

With `CCC(=O)C1CCCN(C(=O)CC2(c3ccccc3Cl)CC(=O)N(CCCOC)C2=O)C1` (stereo unspecified) the “bacterial growth OD600” value (polymyxin B 0.75 µg/mL) was 0.657.

`CC(=O)c1ccccc1-c1ccc2c(c1)CC(CNC(=O)Cc1ccccc1C)O2` (stereo unspecified) was tested, and the “bacterial growth OD600” value (polymyxin B 0.75 µg/mL) was 0.005.

`Cc1ncsc1C(=O)N1CCCC(CNC(=O)c2ccc(-c3ccccc3)cc2)C1` (stereo unspecified) was tested, and the “bacterial growth OD600” value (polymyxin B 1 µg/mL) was 0.926.

`O=C(Cn1nnnc1CN1CCCC1)NC(c1ccccc1)c1ccc(Cl)cc1` (stereo unspecified) was tested, and the “bacterial growth OD600” value (polymyxin B 0.75 µg/mL) was 0.533.

In the case of `COC(=O)[C@@H]1CCCN1C(=O)Cc1ccc(N2CCC(NCCc3ccccn3)CC2)cc1`, the “bacterial growth OD600” value (polymyxin B 0.75 µg/mL) is reported as 0.961.

`O=C(c1ccc2c(c1)OCO2)C1CCCN(C(=O)c2csc(-c3cccs3)n2)C1` (stereo unspecified) was tested, and the “bacterial growth OD600” value (polymyxin B 1 µg/mL) was 0.

`COc1cccc(-c2cn3c(C(=O)N4CCN(C)C(=O)[C@@H]4C)csc3n2)c1` was tested, and the “bacterial growth OD600” value (polymyxin B 1 µg/mL) was 1.04.

In the case of `CN(C)c1ncccc1CNC(=O)Cn1ncc2ccccc21`, the “bacterial growth OD600” value (polymyxin B 1 µg/mL) is reported as 0.914.

In the case of `Cc1cc(Cl)c2oc(C(=O)N(C)CCCN3CCOCC3)c(C)c2c1`, the “bacterial growth OD600” value (polymyxin B 1 µg/mL) is reported as 0.96.

For `COc1ccc(/C=C/C(=O)N2CCc3c(cnc(C)c3CNC(=O)c3cccs3)C2)cc1OC`, the “bacterial growth OD600” value (polymyxin B 0.75 µg/mL) was 0.823.

`COc1cc(/C=C/CN2CCOc3ccc(C(O)Cc4ccccc4)cc3C2)ccc1O` (stereo unspecified) was tested, and the “bacterial growth OD600” value (polymyxin B 0.75 µg/mL) was 0.714.

With `CC(=O)CCC(=O)N1CCC2(CCCN(Cc3ccc(F)cc3)C2)C1` (stereo unspecified) the “bacterial growth OD600” value (polymyxin B 1 µg/mL) was 0.984.

With `O=C(c1ccc(N2CCC(NC(CCn3ccnc3)c3ccccc3)CC2)cc1)N1CCOCC1` (stereo unspecified) the “bacterial growth OD600” value (polymyxin B 0.75 µg/mL) was 0.804.

For `COc1ccccc1CC(=O)NC1CCCc2nc(-c3ccccc3)ncc21` (stereo unspecified), the “bacterial growth OD600” value (polymyxin B 1 µg/mL) was 0.864.

For `CN(Cc1cc(-c2ccccc2)on1)C(=O)CCC1(Cc2ccc3ccccc3c2)CCC(=O)N1` (stereo unspecified), the “bacterial growth OD600” value (polymyxin B 0.75 µg/mL) was 0.08.
